Assay results from paper PMC8901441.
Results are given in words; binding and its absence hold for the method and conditions named. In cells and extracts the contact can be indirect. These calls come from enrichment with a bait or labelling near it, and not all partners need be listed. A no says only that the protein was not detected with the bait.

By UniProt entry, the sequences of proteins in these tests, tags left out.
UniProt Q07812: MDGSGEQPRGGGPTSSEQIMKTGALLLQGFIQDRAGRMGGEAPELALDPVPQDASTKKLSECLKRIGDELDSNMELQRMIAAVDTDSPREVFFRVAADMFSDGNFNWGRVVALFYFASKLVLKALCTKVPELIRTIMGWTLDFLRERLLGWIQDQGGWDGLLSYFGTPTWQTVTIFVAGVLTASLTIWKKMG
UniProt Q16611: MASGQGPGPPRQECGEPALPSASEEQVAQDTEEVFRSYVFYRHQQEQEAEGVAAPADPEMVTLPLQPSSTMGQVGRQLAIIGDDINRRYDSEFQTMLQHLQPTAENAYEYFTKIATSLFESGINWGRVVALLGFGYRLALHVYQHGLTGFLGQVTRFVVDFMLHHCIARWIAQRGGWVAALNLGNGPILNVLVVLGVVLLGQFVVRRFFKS

Key:
FLAG-APEX2-BAX = FLAG-APEX2-BAX (UniProt Q07812); test: condition: only healthy cells (no apoptosis induction); proximity labelling; as a2, but healthy cells (no apoptosis induction)
FLAG-APEX2-BAK = FLAG-APEX2-BAK (UniProt Q16611); test: as above

| binding (FLAG-APEX2-BAX) | binding (FLAG-APEX2-BAK) | Substance |
| --- | --- | --- |
| no binding | – | BAK (endogenous, HeLa cells) (from UniProt Q16611 1-211) |
| – | no binding | BAX (endogenous, HeLa cells) (from UniProt Q07812 1-192) |
